Results deposited as PubChem BioAssay AID1259284 (Sanger Institute, 2017).
The deposit covers 794 reagents; this is a part drawn at random. Over the whole deposit, 16 (2%) were called active. 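Calls concern knock-down without drug only; drug synergy was judged apart, with scores above 0.15 taken as synergy.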 Entries without a mark were called inactive. Not all columns of the deposit are shown. Not given: the amount of reagent, the time to read-out.

Assay: 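siRNA screen across the kinome seeking partners for BYL719, cetuximab or trametinib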 (primary screen)
System: SW48 human colorectal cancer cells
Reagent: siRNA pool against human genes
Conditions: anchor drug BYL719 at 1 µM, cetuximab at 5 µg/ml or trametinib at 10 nM, or DMSO vehicle alone
Measurement: 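Cell viability relative to non-targeting pool wells, replicate mean, with robust z-scores and drug synergy scores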
Direction: robust z-score, no drug: higher = more cells survive knock-down
Call rule: 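a knock-down is essential if viability without drug gives a robust z-score under -3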
Meaning of the calls: active = essential without drug; inactive = no change without drug

Silencing of MTOR resulted in: robust z-score, no drug 0.426.
For TRPM7, the entry reads robust z-score, no drug 0.426.
For CDKL2 the deposit lists robust z-score, no drug 0.426.
ROCK1 gave robust z-score, no drug 0.426.
PIK3C2B showed robust z-score, no drug 0.426.
MYO3B gave robust z-score, no drug 0.426.
Against JAK3, the values are robust z-score, no drug 0.426.
With knock-down of PLK2, the screen gave robust z-score, no drug 0.426.
For STK17A the deposit lists robust z-score, no drug 0.426.
Depletion of TSSK3 came out at: robust z-score, no drug 0.426.
With knock-down of MAPK12 the results were robust z-score, no drug 0.426.
With knock-down of MAP4K4, the record shows robust z-score, no drug -0.756.

Already shown: entries from further up.
ROCK1 — robust z-score, no drug: 0.426
PIK3C2B — robust z-score, no drug: 0.426

Next entries:
TESK2 showed robust z-score, no drug 0.426.
For ERBB2, the entry reads robust z-score, no drug 0.426.
Depletion of EPHA8 resulted in: robust z-score, no drug 0.426.
With knock-down of PKN2, the record shows robust z-score, no drug -0.534.
Against PRKACA, the entry reads robust z-score, no drug 0.426.
Depletion of FASTK resulted in: robust z-score, no drug 0.00912.
FRK gave robust z-score, no drug 0.426.
